Measurements published in article PMC12040169 (PLOS Biology, 2025).
The list shows a part of the results. Peptide text beside a SMILES is read from it. * marks the point of attachment. Hydrocinnamoyl = O=C(CCc1ccccc1)*

Tested on: T1, CTL2-GFP (C. trachomatis L2/434/Bu, GFP-expressing)
T1 construct: L2/434/Bu, GFP-expressing
Parameters: species or system HeLa; Intracellular C. trachomatis growth in HeLa cells, bulk GFP fluorescence relative to DMSO
Settings: bulk GFP, single well; 28.5 h, 10 µM; inhibitor

| Structure (SMILES) | % of control remaining [%] |
| --- | --- |
| CSCCC(=O)N1CCC2(CCN(C(=O)Cc3c[nH]c4ccccc34)C2)C1 (stereo not drawn) [CBK131442] | 89.6123 |
| COc1cc(C(=O)CCN2CCCCC2)cc(OC)c1OC [CBK015639C] | 125.163 |
| CC(=O)Nc1ccc(CNC(=O)c2ccoc2C)cc1 [CBK305010] | 136.494 |
| CC(=O)N1CCC[C@H]2NC(=O)CNC(=O)C3(C/C=C/C[C@H]21)CCN(CC(C)C)CC3 [CBK292088] | 139.75 |
| O=C(Oc1ccc(/C=N/Nc2nc(N3CCOCC3)nc(N3CCOCC3)n2)cc1)c1ccccc1 [CBK262064] | 112.285 |
| N#Cc1ccc(NC(=O)NCC2(N3CCOCC3)CCSC2)cc1 (stereo not drawn) [CBK304546] | 100.856 |
| COCC1CCCN(S(=O)(=O)c2cnc3ccsc3c2)C1 (stereo not drawn) [CBK306397] | 122.558 |
| Fc1ccccc1-c1nc2cnccn2c1NCc1ccco1 [CBK283681] | 144.188 |
| CNS(=O)(=O)c1cc(C(=O)NCc2ccco2)ccc1OC [CBK270180] | 123.798 |
| Cc1ccc(/C=C/C(=O)O)cc1S(=O)(=O)N(CCO)CCO [CBK264840] | 100 |
| COc1nccnc1OC1CCN(CCCC#N)CC1 [CBK084255] | 111.762 |
| COc1ccccc1CN(CCN(C)C)C(=O)Cc1c(C)[nH]c(=O)[nH]c1=O [CBK286343] | 110.717 |
| Cc1ccccc1C(=O)N1C2CCC1CC(O)(Cn1ccnc1C)C2 (stereo not drawn) [CBK282740] | 139.375 |
| O=C(NCC(O)c1ccc2ccccc2c1)c1cnc(-c2ccccc2)c(-c2ccncc2)c1 (stereo not drawn) [CBK037438] | 124.398 |
| COc1cc(OC)cc(C(=O)N2CCC3(CC2)CC(=O)c2cc(F)cc(F)c2O3)c1 [CBK168089] | 103.43 |
| O=C(Cc1csc(-c2ccc(Cl)cc2)n1)NCC1CCCN1 (stereo not drawn) [CBK160982] | 154.457 |
| Cc1cc(NC(=O)C2CCN(CCOc3ccccc3F)CC2)no1 [CBK305688] | 120.745 |
| Fc1ccc([C@@H]2COC[C@H]2NCc2ccsc2)cc1 [CBK282598] | 123.192 |
| CCc1nccn1CC(=O)NC(Cc1ccsc1)c1nccs1 (stereo not drawn) [CBK285139] | 71.46 |
| CCc1ccc2c(COC(=O)c3cccnc3SC)cc(=O)oc2c1 [CBK297486] | 164.907 |
| COc1ccc(C23CCCN(C)C2C[C@@H](O)CC3)cc1OC (stereo partly drawn) [CBK016226C] | 139.484 |
| CN1CCN(c2nc3c(c(=O)n(C)c(=O)n3C)n2CCSc2nc3ccccc3o2)CC1 [CBK269452] | 113.234 |
| NS(=O)(=O)c1ccc(CNC(=S)NC2CCCC2)cc1 [CBK265802] | 100.409 |
| CCNc1ncc(C(=O)N2CCOC(c3ccc(F)c(C)c3)C2)s1 (stereo not drawn) [CBK306375] | 90.4376 |
| COCCCNC(NC(=O)c1ccc(C)cc1)C(Cl)(Cl)Cl (stereo not drawn) [CBK263087] | 98.1826 |
| COc1ccc(S(=O)(=O)NCCSCc2cccc(Cl)c2)c(Cl)c1Cl [CBK266281] | 159.736 |

Reprinted at random: 3 compounds from above

| Structure (SMILES) | % of control remaining [%] |
| --- | --- |
| CC(=O)Nc1ccc(CNC(=O)c2ccoc2C)cc1 [CBK305010] | 136.494 |
| NS(=O)(=O)c1ccc(CNC(=S)NC2CCCC2)cc1 [CBK265802] | 100.409 |
| Cc1cc(NC(=O)C2CCN(CCOc3ccccc3F)CC2)no1 [CBK305688] | 120.745 |

Later entries.

| Structure (SMILES) | % of control remaining [%] |
| --- | --- |
| c1ccc(CN2CCC(c3ccncc3)CC2)nc1 [CBK283505] | 121.084 |
| COc1cc(OC)cc(C(=O)Nc2ccc(C(=O)c3ccccc3)cc2)c1 [CBK098732] | 81.161 |
| Cc1cccc2c1ncn1c(=O)n(CC(=O)Nc3cccc(Cl)c3)nc21 [CBK287815] | 128.598 |
| CCCn1c(SCC(=O)N2CCOCC2)nc2cc(Cl)ccc2c1=O [CBK306482] | 118.75 |
| S=C(NNC(=S)Nc1ccc(Cl)c(Cl)c1)Nc1cccnc1 [CBK268483] | 112.693 |
| O=C(c1ncc(F)cc1F)N1CCCCC1CN1CCOCC1 (stereo not drawn) [CBK305482] | 124.943 |
| CCN(CC)CCN1CCN(c2cc(-c3ccc(OC(F)(F)F)cc3)ncn2)CC1 [CBK037756] | 225.436 |
| O=C(CCC(=O)c1ccc2c(c1)OCCO2)OCC(=O)c1ccc(Cl)c(Cl)c1 [CBK264825] | 100 |
| O=C(Cn1ccc(=O)[nH]c1=O)NCC1(Sc2ccccc2)CC1 [CBK306242] | 123.453 |
| O=C(O)CNC(=O)CNC(=O)CCc1ccccc1 [CBK286874] (Hydrocinnamoyl-Gly-Gly-OH) | 132.323 |
| COc1nc2ccn(CCN3C(=O)CCC3=O)c(=O)c2cc1C#N [CBK307422] | 115.809 |
| CCc1ccc(CN(C(=O)c2cc(OC)c(OC)c(OC)c2)C2CCS(=O)(=O)C2)cc1 (stereo not drawn) [CBK293961] | 150.391 |
| O=S(=O)(CC(F)(F)F)N(c1ccccc1)C1CCNCC1 [CBK165093T] | 111.415 |
| COc1ccc(C(=O)N(C)C2CCN(C)C2)cc1Nc1cncc(-c2cc3ccccc3[nH]2)n1 (stereo not drawn) [CBK155260T] | 90.9545 |
| Nc1ncc(-c2ccsc2)nc1NCC1CCOCC1 [CBK063848] | 177.707 |
| CN1C(=O)c2ccccc2C(=O)[C@@]2(C)CN(C(=O)C3CC3)C[C@@H]12 [CBK284569] | 127.03 |
| Cc1ccc(S(=O)(=O)Nc2ccnc(Cl)n2)cc1 [CBK067661] | 121.713 |
| CCNC(=O)NC[C@H]1C[C@@H]2CCN1C[C@@H]2c1cc(-c2ccccc2OC)nn1C [CBK289105] | 98.6906 |
| CCCCC(NS(=O)(=O)Cc1ccccc1)C(=O)O (stereo not drawn) [CBK286798] | 120.627 |
| CCN(CC)CCCNc1oc(-c2ccc(Cl)cc2)nc1C#N [CBK265746] | 140.677 |
| c1ccc2c3c([nH]c2c1)C1(CCN(CCC2CCCCC2)C1)OCC3 (stereo not drawn) [CBK061789] | 35.5479 |
| CCN(C(=O)Cn1cccc(OC)c1=O)C1CCOC(C)(C)C1 (stereo not drawn) [CBK306879] | 90.4421 |
| O=C(O)CNC(=O)Cn1ccc2ccc(OCc3ccccc3)cc21 [CBK286644] | 120.18 |
| Nc1cc(-c2ccco2)nn(Cc2c(F)cccc2Cl)c1=O [CBK282881] | 82.6889 |
| O=C(NCc1ccc(OC(F)(F)F)cc1)c1cnoc1-c1ccc(F)cc1 [CBK154952] | 126.682 |
